These are yes or no findings as the source states them, for the method shown. In cells and extracts the contact can be indirect. Some entries that bind do so weakly or less than the wild type.
B1: p130Cas (protein, UniProt P56945 1-870)
chain: MNHLNVLAKALYDNVAESPDELSFRKGDIMTVLEQDTQGLDGWWLCSLHGRQGIVPGNRLKILVGMYDKKPAGPGPGPPATPAQPQPGLHAPAPPASQYTPMLPNTYQPQPDSVYLVPTPSKAQQGLYQVPGPSPQFQSPPAKQTSTFSKQTPHHPFPSPATDLYQVPPGPGGPAQDIYQVPPSAGMGHDIYQVPPSMDTRSWEGTKPPAKVVVPTRVGQGYVYEAAQPEQDEYDIPRHLLAPGPQDIYDVPPVRGLLPSQYGQEVYDTPPMAVKGPNGRDPLLEVYDVPPSVEKGLPPSNHHAVYDVPPSVSKDVPDGPLLREETYDVPPAFAKAKPFDPARTPLVLAAPPPDSPPAEDVYDVPPPAPDLYDVPPGLRRPGPGTLYDVPRERVLPPEVADGGVVDSGVYAVPPPAEREAPAEGKRLSASSTGSTRSSQSASSLEVAGPGREPLELEVAVEALARLQQGVSATVAHLLDLAGSAGATGSWRSPSEPQEPLVQDLQAAVAAVQSAVHELLEFARSAVGNAAHTSDRALHAKLSRQLQKMEDVHQTLVAHGQALDAGRGGSGATLEDLDRLVACSRAVPEDAKQLASFLHGNASLLFRRTKATAPGPEGGGTLHPNPTDKTSSIQSRPLPSPPKFTSQDSPDGQYENSEGGWMEDYDYVHLQGKEEFEKTQKELLEKGSITRQGKSQLELQQLKQFERLEQEVSRPIDHDLANWTPAQPLAPGRTGGLGPSDRQLLLFYLEQCEANLTTLTNAVDAFFTAVATNQPPKIFVAHSKFVILSAHKLVFIGDTLSRQAKAADVRSQVTHYSNLLCDLLRGIVATTKAAALQYPSPSAAQDMVERVKELGHSTQQFRRVLGQLAAA

Chains of the proteins cited; added tags and fusions are not shown.
UniProt Q07820: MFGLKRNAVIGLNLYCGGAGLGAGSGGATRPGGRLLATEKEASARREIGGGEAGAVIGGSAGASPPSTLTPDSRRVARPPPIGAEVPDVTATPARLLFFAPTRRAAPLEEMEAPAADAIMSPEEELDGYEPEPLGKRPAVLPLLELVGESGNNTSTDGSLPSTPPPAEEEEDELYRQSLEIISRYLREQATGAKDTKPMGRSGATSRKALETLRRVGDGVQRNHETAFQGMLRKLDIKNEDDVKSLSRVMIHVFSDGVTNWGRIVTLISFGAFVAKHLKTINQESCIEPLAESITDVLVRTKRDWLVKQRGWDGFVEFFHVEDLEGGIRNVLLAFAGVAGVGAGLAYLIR
UniProt Q05397: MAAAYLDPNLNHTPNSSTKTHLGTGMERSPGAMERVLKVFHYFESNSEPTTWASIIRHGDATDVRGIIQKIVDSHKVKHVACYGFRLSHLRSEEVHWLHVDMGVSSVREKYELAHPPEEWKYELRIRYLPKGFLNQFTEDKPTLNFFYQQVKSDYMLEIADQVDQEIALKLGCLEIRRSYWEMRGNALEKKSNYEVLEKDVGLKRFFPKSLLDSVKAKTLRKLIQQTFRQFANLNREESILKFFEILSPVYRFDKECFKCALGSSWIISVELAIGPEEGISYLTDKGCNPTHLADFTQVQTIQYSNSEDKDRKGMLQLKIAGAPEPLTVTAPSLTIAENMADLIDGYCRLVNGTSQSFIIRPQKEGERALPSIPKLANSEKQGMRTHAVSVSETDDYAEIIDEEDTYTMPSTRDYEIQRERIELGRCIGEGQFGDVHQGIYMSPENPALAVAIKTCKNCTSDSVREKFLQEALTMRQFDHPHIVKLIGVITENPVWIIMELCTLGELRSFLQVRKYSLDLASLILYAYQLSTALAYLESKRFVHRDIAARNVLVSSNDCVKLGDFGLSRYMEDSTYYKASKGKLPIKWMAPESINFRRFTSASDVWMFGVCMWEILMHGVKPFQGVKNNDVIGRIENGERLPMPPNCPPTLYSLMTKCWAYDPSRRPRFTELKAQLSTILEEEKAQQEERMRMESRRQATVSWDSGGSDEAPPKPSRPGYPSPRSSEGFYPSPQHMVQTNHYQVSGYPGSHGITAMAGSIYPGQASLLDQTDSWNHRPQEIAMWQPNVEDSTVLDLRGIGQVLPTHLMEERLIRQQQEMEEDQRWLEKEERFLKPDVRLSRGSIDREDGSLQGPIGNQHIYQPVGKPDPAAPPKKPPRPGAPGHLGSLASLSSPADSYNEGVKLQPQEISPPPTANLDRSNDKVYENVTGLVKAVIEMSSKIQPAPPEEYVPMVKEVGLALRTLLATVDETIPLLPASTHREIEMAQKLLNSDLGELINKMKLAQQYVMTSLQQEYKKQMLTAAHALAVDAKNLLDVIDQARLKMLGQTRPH

Legend:
[1] = molecular target: MCL1 (human (endogenous in MDA-MB-231)) (UniProt Q07820); assay: co-IP; MDA-MB-231 cells treated with A-1210477; 400 µg of RIPA whole cell lysate with 0.5 µg antibody against MCL1 for 2 h, then 40 µL IP matrix (ExactaCruz) overnight at 4 °C; washed with RIPA buffer; Western blot for MCL1, FAK and p130Cas
[2] = molecular target: MCL1 (human (endogenous in MDA-MB-231)) (UniProt Q07820); assay: co-IP; control (untreated) MDA-MB-231 cells; 400 µg of RIPA whole cell lysate with 0.5 µg antibody against MCL1 for 2 h, then 40 µL IP matrix (ExactaCruz) overnight at 4 °C; washed with RIPA buffer; Western blot for MCL1, FAK and p130Cas; mock IP with beads alone

| Molecule | binding [1] | binding [2] |
| --- | --- | --- |
| focal adhesion kinase (FAK) (from UniProt Q05397 1-1052) | no binding (condition: cells treated with A-1210477) | binds |
| B1 | no binding (condition: cells treated with A-1210477) | binds |

Reference: paper PMC10342057
